## Results of single-concentration screens

Mtb glucose medium: 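Whole-cell growth test on Mycobacterium tuberculosis, read after 3 days in glucose-containing 7H9 medium; the read-out is not stated. Tested at 50 µM. The record gives no direction; compounds that gave an IC50 in retests scored well above the rest, so higher reads as more growth inhibition. Of about 69,000 compounds tested this way, about 760 (1.1%) reached 50% or more in at least one test.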
Mtb cholesterol medium: 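Whole-cell growth test on Mycobacterium tuberculosis, read after 4 days in a medium based on cholesterol and the lipid DPPC; the read-out is not stated. Compounds at 50 µM. Direction is inferred from retests: higher values go with more growth inhibition. About 69,000 compounds were tested under these conditions; 0.54% (about 370) showed 50% or more at least once.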

Values are the deposited “Percent Effect”, in %. The controls that fix the scale are not given in the record; negative values are as filed. This is an unselected part of the compounds tested. Two or more numbers in one place are separate tests of the same structure; such repeats can differ widely.

With Cc1noc(C)c1CN1Cc2ccnn2CC(C(=O)NCC2CC2)C1.O=C(O)C(F)(F)F.O=C(O)C(F)(F)F (stereo not given) the screen gave Mtb glucose medium: -16.31%; Mtb cholesterol medium: -11.29%.
With COCc1noc(C2(c3ccc(F)cc3)CCOCC2)n1 the screen gave Mtb glucose medium: -59.03%; Mtb cholesterol medium: -60.68%.
With Cc1ccccc1C(=O)N1CCC2(CC1)CC(c1cnn(C)c1)CO2 (stereo not given) the screen gave Mtb glucose medium: -4.402%; Mtb cholesterol medium: 15.42% and -8.753%.
With COc1ccc(CN2CCC(O)(CN3CCCCC3)C2)c(C)c1 (stereo not given) the screen gave Mtb glucose medium: 2.125%; Mtb cholesterol medium: 11.56%.
With COc1cccc(CN2CCC3(CC(Nc4ccncn4)C3)C2)c1F (stereo not given) the screen gave Mtb glucose medium: -0.005624%; Mtb cholesterol medium: -2.423%.
With O=C(O)C(F)(F)F.O=C(O)C(F)(F)F.O=C(O)C(F)(F)F.[H][C@@]12COC[C@]1(C(=O)NCc1ccccn1)CN(Cc1cccnc1)C2 the screen gave Mtb glucose medium: -19.54%; Mtb cholesterol medium: 1.006%.
With [H][C@@]12CCN(S(=O)(=O)c3ccccc3)C[C@]1(C(=O)NC)CCO2 the screen gave Mtb glucose medium: -17.39%; Mtb cholesterol medium: -5.671% and -14%.
With COc1cc(N2CCCC3(CCN(c4cccnc4)C3=O)C2)ncn1.O=C(O)C(F)(F)F (stereo not given) the screen gave Mtb glucose medium: 17.67%; Mtb cholesterol medium: -18.51%.
With COC1CCCN(Cc2cc(O)c3cc(C)cc(C)c3n2)C1 (stereo not given) the screen gave Mtb glucose medium: 14.02%; Mtb cholesterol medium: 5.408%.
With CC(C)(C)c1cc(NC(=O)CN2CCC(N3CCNC3=O)CC2)on1 the screen gave Mtb glucose medium: -37.97%; Mtb cholesterol medium: -15.95%.
With Cc1ccc(C(C)(O)CNC(=O)c2scnc2C)o1 (stereo not given) the screen gave Mtb glucose medium: -3.236%; Mtb cholesterol medium: -5.7%.
With COc1ccccc1Oc1ncccc1CNC(=O)[C@@H](C)NC(C)=O the screen gave Mtb glucose medium: -10.52% and 8.585%; Mtb cholesterol medium: 5.137%.
With Cn1c(=O)n(C)c2cc(NS(=O)(=O)Cc3cccc(F)c3)ccc21 the screen gave Mtb glucose medium: -3.564%; Mtb cholesterol medium: 4.428%.
With Cc1ncsc1C(=O)NC1CCN(CCC(N)=O)CC1 the screen gave Mtb glucose medium: -8.59%; Mtb cholesterol medium: -10.91%.
With O=C(C1CCOCC1)N1CCCC1c1cncc(CN2CCCC2)n1 (stereo not given) the screen gave Mtb glucose medium: 14.61%; Mtb cholesterol medium: -3.9%.
With COC[C@@H]1CCC[C@@]12CN(C(=O)C1CCOCC1)CCO2 the screen gave Mtb glucose medium: 10.65%; Mtb cholesterol medium: 2.313%.
With O=C(O)C(F)(F)F.[H][C@@]12CCN(Cc3ccc(C)o3)C[C@@]1([H])[C@H](C(=O)NC1CC1)CCO2 the screen gave Mtb glucose medium: -24.41%; Mtb cholesterol medium: -18.99%.
With COc1cc(CCC(=O)NC(C)(C)C)ccc1OCC(F)(F)F the screen gave Mtb glucose medium: 32.83%; Mtb cholesterol medium: -8.65%.
With O=C(O)C(F)(F)F.O=C1N(c2ccsc2)CCC12CCCN(CC1CC1)C2 (stereo not given) the screen gave Mtb glucose medium: -30.15%; Mtb cholesterol medium: -2.036% and -9.549%.
With Cc1cn2c(n1)CCC(NS(=O)(=O)c1sc(C)nc1C)C2 (stereo not given) the screen gave Mtb glucose medium: -2.256% and 14.38%; Mtb cholesterol medium: -9.572%.
With CCn1c(C)nnc1SCCNc1cc(COC)ncn1 the screen gave Mtb glucose medium: -23.37% and -3.558%; Mtb cholesterol medium: -4.647%.
With CCc1nc(CN2CCCC(N(C)Cc3cnc(C)cn3)C2)no1 (stereo not given) the screen gave Mtb glucose medium: -28.75%; Mtb cholesterol medium: -12.77%.
With O=C(CCC(=O)N1CCC(Cc2ccc(CO)cc2)C1)c1ccccc1 (stereo not given) the screen gave Mtb glucose medium: -12.05%; Mtb cholesterol medium: -13%.
With CCC[C@@H]1CN(c2cncc(C(=O)N3CCOCC3)n2)C[C@H]1N(C)C the screen gave Mtb glucose medium: -33.23%; Mtb cholesterol medium: -21.6%.
With O=C(c1ccc2ncsc2c1)N1CCC(C(=O)O)(n2cccn2)CC1 the screen gave Mtb glucose medium: 4.55%; Mtb cholesterol medium: 1.967%.
With Cc1cc(C[S+]([O-])Cc2ccccc2C)no1 (stereo not given) the screen gave Mtb glucose medium: -14.92%; Mtb cholesterol medium: -7.013%.
With CCCOc1cc(C)ccc1NC(=O)N(C)Cc1cnn(C)c1 the screen gave Mtb glucose medium: 15.7%; Mtb cholesterol medium: -24.84%.
With CN1CCOC[C@H]1c1nc(-c2cccc(F)c2)c[nH]1 the screen gave Mtb glucose medium: -13.58% and -5.659%; Mtb cholesterol medium: -16.26%.
With CCOCC1CN(Cc2ccc(OC)cc2)Cc2nn(CC3CC3)cc21.O=C(O)C(F)(F)F (stereo not given) the screen gave Mtb glucose medium: 13.66%; Mtb cholesterol medium: -34.41%.
With c1coc(CN2CCC3(CC2)CC(N2CCCC2)CO3)c1 (stereo not given) the screen gave Mtb glucose medium: -74.59%; Mtb cholesterol medium: -63.33%.
With Cc1ccc(O)c(CNc2cccc(OCCF)c2)n1 the screen gave Mtb glucose medium: -26.25%; Mtb cholesterol medium: 11.7%.
With CN(C)c1cncc(C2CCCN(c3cnccn3)C2)n1 (stereo not given) the screen gave Mtb glucose medium: 6.101%; Mtb cholesterol medium: -7.192% and 12.14%.

Some entries from above, unchanged:

* CCc1nc(CN2CCCC(N(C)Cc3cnc(C)cn3)C2)no1 (stereo not given) | Mtb glucose medium: -28.75%; Mtb cholesterol medium: -12.77%
* Cc1noc(C)c1CN1Cc2ccnn2CC(C(=O)NCC2CC2)C1.O=C(O)C(F)(F)F.O=C(O)C(F)(F)F (stereo not given) | Mtb glucose medium: -16.31%; Mtb cholesterol medium: -11.29%
* CC(C)(C)c1cc(NC(=O)CN2CCC(N3CCNC3=O)CC2)on1 | Mtb glucose medium: -37.97%; Mtb cholesterol medium: -15.95%
* O=C(O)C(F)(F)F.O=C1N(c2ccsc2)CCC12CCCN(CC1CC1)C2 (stereo not given) | Mtb glucose medium: -30.15%; Mtb cholesterol medium: -2.036% and -9.549%

From ChEMBL document CHEMBL3988442, “University of Dundee, Small-Polar-MMV Screening Library” (2021).